Assay results from PMC5358341.
Results are given in words; binding and its absence hold for the method and conditions named. In cells and extracts the contact can be indirect. Some binding calls cover weakened binding; strength is not graded here. For part of these data: Where a sequence is shown, tags or fusion partners need not be part of it.

By UniProt entry, the sequences of proteins in these tests, tags left out.
UniProt Q13185: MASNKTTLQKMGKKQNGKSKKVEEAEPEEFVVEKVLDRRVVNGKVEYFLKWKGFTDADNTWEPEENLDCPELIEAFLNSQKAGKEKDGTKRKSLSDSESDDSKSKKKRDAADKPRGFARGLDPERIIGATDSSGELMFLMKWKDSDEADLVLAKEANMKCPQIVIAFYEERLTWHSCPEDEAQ

T1: GFP–NIPBL^N (smallest N-terminal fragment of NIPBL isoform A fused to GFP) (human) (UniProt Q6KC79)
T1 sequence: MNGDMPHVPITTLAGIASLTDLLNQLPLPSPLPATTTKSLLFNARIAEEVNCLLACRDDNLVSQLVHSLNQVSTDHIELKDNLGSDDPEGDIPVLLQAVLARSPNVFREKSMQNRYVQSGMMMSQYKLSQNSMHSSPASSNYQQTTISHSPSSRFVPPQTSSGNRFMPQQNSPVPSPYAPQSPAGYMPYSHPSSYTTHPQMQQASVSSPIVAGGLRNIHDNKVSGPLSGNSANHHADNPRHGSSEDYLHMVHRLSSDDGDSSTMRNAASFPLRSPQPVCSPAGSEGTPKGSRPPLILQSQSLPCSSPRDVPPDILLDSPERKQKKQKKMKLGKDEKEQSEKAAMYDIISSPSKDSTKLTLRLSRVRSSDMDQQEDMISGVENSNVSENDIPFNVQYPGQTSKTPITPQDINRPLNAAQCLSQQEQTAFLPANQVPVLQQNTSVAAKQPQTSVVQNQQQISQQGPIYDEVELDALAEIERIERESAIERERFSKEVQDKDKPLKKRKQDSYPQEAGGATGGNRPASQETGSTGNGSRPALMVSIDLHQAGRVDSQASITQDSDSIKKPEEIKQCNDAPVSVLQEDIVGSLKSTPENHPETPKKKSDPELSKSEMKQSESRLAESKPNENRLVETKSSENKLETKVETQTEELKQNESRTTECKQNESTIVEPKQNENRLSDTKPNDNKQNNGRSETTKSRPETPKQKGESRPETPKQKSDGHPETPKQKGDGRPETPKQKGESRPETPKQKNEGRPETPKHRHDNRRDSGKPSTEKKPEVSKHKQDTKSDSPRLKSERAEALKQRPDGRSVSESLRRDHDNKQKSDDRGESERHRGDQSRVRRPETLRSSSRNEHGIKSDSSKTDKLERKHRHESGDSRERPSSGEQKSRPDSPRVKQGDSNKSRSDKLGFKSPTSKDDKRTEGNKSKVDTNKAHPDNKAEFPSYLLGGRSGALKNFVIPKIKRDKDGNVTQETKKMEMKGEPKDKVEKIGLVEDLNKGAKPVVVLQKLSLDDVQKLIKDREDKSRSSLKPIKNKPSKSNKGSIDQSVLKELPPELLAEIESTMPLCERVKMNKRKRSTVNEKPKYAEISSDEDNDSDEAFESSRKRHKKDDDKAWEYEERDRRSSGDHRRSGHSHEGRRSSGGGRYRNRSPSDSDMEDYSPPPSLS

B1: native MAU2 (protein, UniProt Q9Y6X3 1-613)
chain: MAAQAAAAAQAAAAQAAQAEAADSWYLALLGFAEHFRTSSPPKIRLCVHCLQAVFPFKPPQRIEARTHLQLGSVLYHHTKNSEQARSHLEKAWLISQQIPQFEDVKFEAASLLSELYCQENSVDAAKPLLRKAIQISQQTPYWHCRLLFQLAQLHTLEKDLVSACDLLGVGAEYARVVGSEYTRALFLLSKGMLLLMERKLQEVHPLLTLCGQIVENWQGNPIQKESLRVFFLVLQVTHYLDAGQVKSVKPCLKQLQQCIQTISTLHDDEILPSNPADLFHWLPKEHMCVLVYLVTVMHSMQAGYLEKAQKYTDKALMQLEKLKMLDCSPILSSFQVILLEHIIMCRLVTGHKATALQEISQVCQLCQQSPRLFSNHAAQLHTLLGLYCVSVNCMDNAEAQFTTALRLTNHQELWAFIVTNLASVYIREGNRHQEVLYSLLERINPDHSFPVSSHCLRAAAFYVRGLFSFFQGRYNEAKRFLRETLKMSNAEDLNRLTACSLVLLGHIFYVLGNHRESNNMVVPAMQLASKIPDMSVQLWSSALLRDLNKACGNAMDAHEAAQMHQNFSQQLLQDHIEACSLPEHNLITWTDGPPPVQFQAQNGPNTSLASLL

Experiments:
[1] = biological target: T1, GFP–NIPBL^N (smallest N-terminal fragment of NIPBL isoform A fused to GFP) (human); assay: co-IP; nuclear extracts (50 mM Hepes, 3 mM MgCl2, 300 mM NaCl, benzonase) incubated with Protein A beads coupled to anti-GFP antibody overnight at 4°C; GFP–NIPBL^N precipitated, HP1γ detected by western blotting
[2] = biological target: GFP–NIPBL^G15R (full-length NIPBL isoform A with the G15R mutation, fused to GFP) (human) (UniProt Q6KC79); assay: co-IP; whole-cell extracts (0.5% NP-40, 150 mM NaCl, 50 mM Tris-HCl pH 8, DNAseI) mixed with anti-GFP–Sepharose beads overnight at 4°C; GFP–NIPBL precipitated, native MAU2 detected by western blotting
[3] = biological target: GFP–NIPBL^A (full-length NIPBL isoform A fused to GFP) (human) (UniProt Q6KC79); assay: as above

Row | Molecule | binding [1] | binding [2] | binding [3]
1 | HP1γ (heterochromatin protein 1 gamma) (from UniProt Q13185 1-183) | binds | – | –
2 | B1 | – | no binding | binds
